Source: PubChem BioAssay AID493246 (Drosophila RNAi Screening Center, 2011)

Test: 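Identify essential fly genes by loss of cell viability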 (primary screen)
Cells: Drosophila Kc and S2R+ cells
Reagent: long dsRNA against Drosophila genes
Read-out: 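Cell number per well after knock-down, printed as raw plate values; calls were based on per-plate z-scores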
Scale: Kc cell number and S2R+ cell number: higher = more cells remaining
Call rule: 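Counted as a hit if cell number falls by a z-score of at least 3 within its plate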
In all, the deposit lists about 21,000 reagents; below is an unselected part of those with a known target gene and a result. Over the whole deposit, 429 (2%) are marked active. 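Values are raw and not normalised between plates; calls rest on per-plate z-scores that were not deposited.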 The numbers tell different reagents against one gene apart. A plus sign joins genes that one reagent is predicted to hit. The record does not give: the amount of reagent, the time to read-out.

target	reagent no.	Kc cell number, rep 1	Kc cell number, rep 2	S2R+ cell number, rep 1	S2R+ cell number, rep 2	Call
Ars2	1	1.26e6	1.36e6	9.55e5	1.03e6	inactive
Cpsf73	1	1.67e6	1.76e6	1.12e6	1.21e6	inactive
CG10550	1	4.90e5		8.50e5		inactive
grp + CG31782 (retired record)	1	1.28e6	1.37e6	1.35e6	1.39e6	inactive
mtrm	1	1.27e6	1.39e6	8.38e5	8.56e5	inactive
CG42271	1	6.01e5		7.22e5		inactive
Kdm5	1	1.38e6	1.40e6	6.21e5	8.19e5	inactive
mmm	1	1.59e6	1.62e6	1.15e6	1.23e6	inactive
CG43317	1	1.29e6	1.32e6	1.14e6	1.30e6	inactive
CG8745	1	1.59e6	1.68e6	1.22e6	1.27e6	inactive
CG8745	2	1.75e6	1.97e6	1.36e6	1.40e6	inactive
Gbs-70E	1	1.36e6	1.45e6	1.21e6	1.29e6	inactive
Mondo	1	1.29e6	1.34e6	1.01e6	1.20e6	inactive
Mondo	2	1.46e6	1.55e6	1.31e6	4.98e5	inactive
His2B:CG33894 + His2B:CG33872 + His2B:CG33902 + 20 more	1	6.14e5	7.69e5	4.63e5	5.52e5	active
AlaRS	1	1.24e6	1.42e6	4.46e5	4.18e5	inactive
JIL-1	1	1.57e6	1.61e6	1.27e6	1.18e6	inactive
Yp1	1	1.54e6	1.52e6	1.09e6	1.22e6	inactive
trpl	1	1.96e6	1.94e6	1.48e6	1.72e6	inactive
trpl	2	1.83e6	1.87e6	1.31e6	1.51e6	inactive
Pcif1	1	1.43e6	1.50e6	1.28e6	1.30e6	inactive
Cpsf6	1	1.07e6	1.13e6	1.09e6	1.03e6	inactive
Gprk1	1	1.35e6	1.44e6	1.11e6	1.06e6	inactive
Gprk1	2	1.46e6	1.94e6	1.26e6	1.28e6	inactive
rdog	1	4.88e5		8.14e5		inactive
Kat60	1	1.65e6	1.88e6	1.32e6	1.46e6	inactive
Usp20-33	1	1.44e6	1.50e6	1.14e6	1.22e6	inactive
spdi	1	5.39e5		7.89e5		inactive
spdi	2	1.50e6	1.51e6	9.44e5	1.08e6	inactive
CG10469	1	1.37e6	1.30e6	1.11e6	1.17e6	inactive
Nadsyn	1	5.92e5		9.47e5		inactive
Atat	1	1.29e6	1.40e6	1.20e6	1.07e6	inactive
PIG-C	1	1.50e6	1.30e6	9.67e5	1.15e6	inactive
CG4375	1	1.72e6	1.74e6	1.05e6	1.21e6	inactive
eIF2Bdelta	1	1.49e6	1.57e6	1.10e6	1.20e6	inactive
CG5199	1	1.67e6	1.87e6	1.49e6	1.53e6	inactive
Jon25Biii	1	1.59e6	1.48e6	1.12e6	1.29e6	inactive
Pisd	1	1.53e6	1.54e6	1.02e6	1.12e6	inactive
Hpf1	1	1.47e6	1.54e6	1.30e6	1.34e6	inactive
CG10465	1	1.54e6	1.56e6	1.19e6	1.29e6	inactive
Erk7	1	1.55e6	1.52e6	1.04e6	1.11e6	inactive
Erk7	2	1.54e6	1.49e6	1.04e6	1.06e6	inactive
trem	1	1.38e6	1.36e6	1.10e6	1.14e6	inactive
CG13293	1	1.45e6	1.38e6	1.11e6	1.22e6	inactive
CG2201	1	1.25e6	1.33e6	1.08e6	1.14e6	inactive
CG15546	1	1.61e6	1.66e6	1.03e6	1.18e6	inactive
Or7a	1	1.47e6	1.46e6	9.86e5	1.12e6	inactive
CG14022	1	1.63e6	1.66e6	1.20e6	1.45e6	inactive
CG15461	1	1.40e6	1.46e6	1.05e6	1.10e6	inactive
Mical	1	1.61e6	1.57e6	1.25e6	1.45e6	inactive
Mical	2	1.65e6	1.70e6	1.20e6	1.35e6	inactive
Mical	3	1.69e6	1.66e6	1.23e6	1.32e6	inactive
Mical	4	1.70e6	1.68e6	1.23e6	1.38e6	inactive
CG13018	1	1.72e6	1.90e6	1.43e6	1.60e6	inactive
unc-119	1	1.52e6	1.54e6	1.09e6	1.19e6	inactive
Spt	1	1.77e6	1.75e6	1.38e6	1.56e6	inactive
CG15269	1	1.57e6	1.69e6	1.16e6	1.29e6	inactive
Unc-115a	1	1.53e6	1.67e6	1.08e6	1.18e6	inactive
CG11159	1	1.51e6	1.43e6	9.61e5	1.15e6	inactive
RunxA	1	1.18e6	1.37e6	1.10e6	1.11e6	inactive
RunxA	2	1.35e6	1.32e6	7.56e5	8.31e5	inactive
RunxA	3	1.34e6	1.33e6	9.84e5	1.10e6	inactive
ZC3H3	1	8.52e5	1.12e6	4.92e5	6.17e5	active
BCAS2	1	5.59e5		8.19e5		inactive
CG6836	1	1.83e6	1.91e6	1.58e6	1.54e6	inactive
CG15699 (retired record)	1	1.77e6	1.76e6	1.09e6	1.21e6	inactive
CG3301	1	1.55e6	1.61e6	1.33e6	1.41e6	inactive
cmb	1	1.31e6	1.35e6	1.36e6	1.46e6	inactive
CG33704	1	5.11e5		8.68e5		inactive
CG10674	1	1.24e6	1.25e6	1.12e6	1.18e6	inactive
eater	1	1.50e6	1.64e6	9.79e5	1.08e6	inactive
mys	1	1.55e6	1.50e6	1.06e6	1.22e6	inactive
shv	1	1.50e6	1.55e6	1.09e6	1.21e6	inactive
Hers + amn	1	1.50e6	1.54e6	1.06e6	1.17e6	inactive
CG1213	1	1.60e6	1.89e6	1.27e6	1.39e6	inactive

Ordered by “Kc cell number, rep 2” (highest first): some entries from above.
target	reagent no.	Kc cell number, rep 1	Kc cell number, rep 2	S2R+ cell number, rep 1	S2R+ cell number, rep 2	Call
trpl	1	1.96e6	1.94e6	1.48e6	1.72e6	inactive
trpl	2	1.83e6	1.87e6	1.31e6	1.51e6	inactive
JIL-1	1	1.57e6	1.61e6	1.27e6	1.18e6	inactive
Yp1	1	1.54e6	1.52e6	1.09e6	1.22e6	inactive
Pcif1	1	1.43e6	1.50e6	1.28e6	1.30e6	inactive
Gprk1	1	1.35e6	1.44e6	1.11e6	1.06e6	inactive
AlaRS	1	1.24e6	1.42e6	4.46e5	4.18e5	inactive
Cpsf6	1	1.07e6	1.13e6	1.09e6	1.03e6	inactive
